# Experimental data: patent US20240270853A1 (Chugai, published 2024)
# These are yes or no findings as the source states them, for the method shown. Some entries that bind do so weakly or less than the wild type.
# T1: Discoidin domain (22-190) of mouse DDR2 (mouse) (UniProt Q62371)
# T1 sequence: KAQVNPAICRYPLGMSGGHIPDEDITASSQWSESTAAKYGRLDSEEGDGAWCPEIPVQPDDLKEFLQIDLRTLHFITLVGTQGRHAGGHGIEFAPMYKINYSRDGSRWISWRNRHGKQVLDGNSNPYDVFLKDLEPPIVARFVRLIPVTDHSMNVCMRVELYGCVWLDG
# B1: Fab fragment of DAB0065 (Fab, V domains shown)
# VH: QSVEESGGRLVTPGTPLTLTCTVSGFSLSTSAMSWVRQAPGKGLEWIGMITYGGSGSTWYASWANGRFTISKTSTTVTLKMTSPTTEDTASYFCARVYGTIGSNFYSIYSFNLWGQGTLVTVSS
# VL: AAVLTQTPSPVSAAVGGTVSISCQSSKSVYNSNYLSWYQQKPGQPPKLLIYYTSALASGVSSRFKGSGSGTRFTLTISDVQCDDAATYYCAGGYSSSSDNGFGGGTKVEIK
# Target: T1, Discoidin domain (22-190) of mouse DDR2 (mouse)
# Assay: X-ray crystal structure of the complex
binder,measurement,value
B1,binding,binds
